Assay results taken from publication doi:10.1101/2025.10.13.682015.
These are yes or no findings as the source states them, for the method shown. Binding seen in cells or lysates may run through a third protein. These calls come from enrichment with a bait or labelling near it, and not all partners need be listed. Tags and fused reporters may be left off the sequences shown.

Target: T1, mimivirus L323, endogenously tagged with C-terminal 3xHA (Acanthamoeba polyphaga mimivirus)
T1 sequence: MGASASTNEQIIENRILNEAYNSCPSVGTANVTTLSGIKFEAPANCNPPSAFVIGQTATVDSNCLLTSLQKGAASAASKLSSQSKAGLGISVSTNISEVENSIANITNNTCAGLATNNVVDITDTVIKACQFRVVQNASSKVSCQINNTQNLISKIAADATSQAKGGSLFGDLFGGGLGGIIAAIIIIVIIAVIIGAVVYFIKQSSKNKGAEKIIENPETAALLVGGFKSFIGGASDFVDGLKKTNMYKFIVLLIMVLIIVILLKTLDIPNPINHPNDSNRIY
Test: affinity purification with mass spectrometry

Substance | binding
mimivirus L775 (from UniProt Q5UPR5) | binds
mimivirus R486 (from UniProt Q5UQG0) | binds
mimivirus L65 (from UniProt Q5UPE0) | binds
